From article PMC7819943, “Rice protein-binding microarrays: a tool to detect cis-acting elements near promoter regions in rice” come the findings set out here.

By UniProt entry, the sequences of proteins in these tests, tags left out.
UniProt Q0JBA9, entry or part of it: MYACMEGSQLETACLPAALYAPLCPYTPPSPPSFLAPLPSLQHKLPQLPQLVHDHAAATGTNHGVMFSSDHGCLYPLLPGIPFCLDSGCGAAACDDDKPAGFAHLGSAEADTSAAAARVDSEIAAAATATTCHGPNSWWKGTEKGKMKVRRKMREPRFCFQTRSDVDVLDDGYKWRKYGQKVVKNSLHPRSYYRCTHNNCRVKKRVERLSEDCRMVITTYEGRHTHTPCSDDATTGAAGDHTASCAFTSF

This is one part of the list.

For the assay, the target named is OsWRKY34 (Oryza sativa, UniProt Q0JBA9 1-250). The experiment in a line: protein-binding microarray (RPBM); PBS, 2% BSA, 51.3 ng/ul salmon testes DNA, 50 uM zinc acetate, 200 nM TF, 25 C, 1 h; high values mean tight binding. To be noted: protein: recombinant; tags: N-terminal polyhistidine and DsRed monomer fusion (pET32a); label: CyDye5-dUTP incorporated in the synthesized complementary strand; 3' TTTTT single-stranded linker to array surface; dsDNA, one strand shown. The method in brief: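 Binding signal is reported as fluorescence intensity per feature (arbitrary units) from an Axon 4000B scanner. Incubation used 200 nM of each Ni–NTA-purified, N-terminally polyhistidine- and DsRed-fused transcription factor from E. coli BL21-CodonPlus on a double-stranded custom Agilent array for 1 h at 25 °C, with 50 µM zinc acetate in the buffer, followed by washing.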
As to “TTTATTTTCCAACCCATCTCTCTTCTTTCTGCGCACACGTCGGAGTCACCTAGTGCAG”, the binding signal is 11300 fluorescence intensity (a.u.).
In the case of “TGGTACCCTGTGTTGTAATAACCATAGCCTGGCCCTGTTACGGAGTCACCTAGTGCAG”, the binding signal is 8860 fluorescence intensity (a.u.).
To “GCATCGAATTTCACCGCCAACACACCCATCATAGTTTACGCGGAGTCACCTAGTGCAG” belongs 9450 fluorescence intensity (a.u.).
To “AACTGTGTTCCTTCCCTTCTTTCCTAACTCACCTATCTCCCGGAGTCACCTAGTGCAG” belongs 8230 fluorescence intensity (a.u.).
In the case of “TATATCGTTGTCTTTTTCTACCATCTATCTTATTTAAAAACGGAGTCACCTAGTGCAG”, the binding signal was 9210 fluorescence intensity (a.u.).
Take “GATATAAAACTCTTGCATCTACGATAATTCTCCAATCCTACGGAGTCACCTAGTGCAG”: the binding signal is 8810 fluorescence intensity (a.u.).
To “TCCATCATGCGTTGCCCGACTGCTGCACATCCGCCACATCCGGAGTCACCTAGTGCAG” belongs 11900 fluorescence intensity (a.u.).
To “CATGTCAGTTCCATGTCCCAGCTTCACCAATGTGCATTTCCGGAGTCACCTAGTGCAG” belongs 9190 fluorescence intensity (a.u.).
With “TCTCTCACTCGCTCTGTACGTACGTTGCCGCCTGCCCATGCGGAGTCACCTAGTGCAG”, the binding signal was 9100 fluorescence intensity (a.u.).
For “ACACCCTGACGGTCCAGCATGATCCATCAAATCCATCGAACGGAGTCACCTAGTGCAG” the value was 9970 fluorescence intensity (a.u.).
“TTGCGTACTCTGGGTGTGTTTTAGTGCACCTGTAATTTCCCGGAGTCACCTAGTGCAG”: the binding signal was 8270 fluorescence intensity (a.u.).
On to “CTGGTTTCCATGCCCAACGTTTGACCGTTCGTCTTATTTGCGGAGTCACCTAGTGCAG”, for which the binding signal is 10300 fluorescence intensity (a.u.).
For “GCGTTCCTACTTCCTGCCACCTCCGTCCCTCCGTACCAGTCGGAGTCACCTAGTGCAG” the value was 9090 fluorescence intensity (a.u.).
Regarding “GGATTCACCACTCATCACCATCTTTAAGGTTTACGTTGAACGGAGTCACCTAGTGCAG”, the binding signal is 9400 fluorescence intensity (a.u.).
With “ATCACCACCACCACCGCACGGGCGGGCGGGCGGGCGATCGCGGAGTCACCTAGTGCAG”, the binding signal was 12400 fluorescence intensity (a.u.).
In the case of “GCAAATGTACCTATTTAAGCCCCTGCATTCCCGCGTATTCCGGAGTCACCTAGTGCAG”, the binding signal was 8130 fluorescence intensity (a.u.).
Consider “TCTGTTCTCACCTGTACATACATACATACGCACGCACGTACGGAGTCACCTAGTGCAG”, for which the binding signal is 9220 fluorescence intensity (a.u.).
To “AGGCGGAGGAGGGGAGGCGGAAGGGGTTCGCGTCGGCGGCCGGAGTCACCTAGTGCAG” belongs 12200 fluorescence intensity (a.u.).
On to “AAGCTCTCATCCGATCATTGTCGCCGTCGCCCCTGAGTTCCGGAGTCACCTAGTGCAG”, for which the binding signal was 8860 fluorescence intensity (a.u.).
To “GGGGTTAGCTATTATCGGACAACTTGGCATATTGAAATTTCGGAGTCACCTAGTGCAG” belongs 11600 fluorescence intensity (a.u.).
For “TTAGCTTAGGGTGGTATGTTTGGATCCATGGGCTAAATCACGGAGTCACCTAGTGCAG” the value was 9240 fluorescence intensity (a.u.); for “GCAGGGTCTGTTTAGTTTCCAAATAAAAATTTTCCACAATCGGAGTCACCTAGTGCAG”, 8390 fluorescence intensity (a.u.); for “CCTCGCCGTCACGCTGGCGGTCGCCACCTCGTCGCTCTCCCGGAGTCACCTAGTGCAG”, 9700 fluorescence intensity (a.u.).
Regarding “TCTCCCTTTCATTTTTATGTATGTTGGAATTATTTTTGTTCGGAGTCACCTAGTGCAG”, the binding signal was 8590 fluorescence intensity (a.u.).
“GCTCTCCTGCCACCGGGCCTCCACATTCGGCGTCGCACTCCGGAGTCACCTAGTGCAG”: the binding signal was 14300 fluorescence intensity (a.u.).
For the sequence “GCCGCCGTCACCACTAGATCTCCTCGTGTTGAGCTCGCAACGGAGTCACCTAGTGCAG”, the binding signal is 10100 fluorescence intensity (a.u.).
To “ACCCTACCTTACCTGCTCCTACTACTGCTCGCCTCGCTTACGGAGTCACCTAGTGCAG” belongs 11700 fluorescence intensity (a.u.); to “TGTTGTAGTAGATGTTGCTAAATGTTTTTTTATAAACTCACGGAGTCACCTAGTGCAG”, 9230 fluorescence intensity (a.u.).
In the case of “TGTGCCACTTTGCGGTTACTATATGCGCTGTTTGTGTCTTCGGAGTCACCTAGTGCAG”, the binding signal was 11600 fluorescence intensity (a.u.).
For “GAGTATAGTAAGCCCTTGTTTAGTTCCCAACTTTTTCTTCCGGAGTCACCTAGTGCAG” the value was 8210 fluorescence intensity (a.u.); for “CCACTTTATCTTTTCCGTTCTATTTTTTAACTAACTCCGTCGGAGTCACCTAGTGCAG”, 10300 fluorescence intensity (a.u.).
To “AGGTTTTATTTTCTTTCCACGCCGTTCGCTTCCCGCAATCCGGAGTCACCTAGTGCAG” belongs 13200 fluorescence intensity (a.u.).
Take “GGTATCATTTGTTAGAGTGCGCAGTCCGACCCACCAACCGCGGAGTCACCTAGTGCAG”: the binding signal was 9750 fluorescence intensity (a.u.).
To “CCATTTCCTCATCGTTCCTCCCTTTTCCCCGATTCTCTACCGGAGTCACCTAGTGCAG” belongs 9540 fluorescence intensity (a.u.); to “AATGTTGAAATGGGTTGAGTGGTCTCAAGTTGGTCAGGATCGGAGTCACCTAGTGCAG”, 8240 fluorescence intensity (a.u.).
To “AATCTCTCAATCTATGCCTATGCCCAACAACACGTTCTAACGGAGTCACCTAGTGCAG” belongs 10300 fluorescence intensity (a.u.).
For “TCCTCCTCGCTCTCGCTCTCTCGATCGATCGAATCGATTCCGGAGTCACCTAGTGCAG” the value was 8580 fluorescence intensity (a.u.); for “CTTCTACATTTACACCATCTAGTAATCTTGTTAAGCATCTCGGAGTCACCTAGTGCAG”, 8440 fluorescence intensity (a.u.).
Turning to “GTTTATTTAACGTGCTCAGTGGTTTCTTTTGTCATTGGAGCGGAGTCACCTAGTGCAG”, the binding signal is 8360 fluorescence intensity (a.u.).
In the case of “CCCAGGCCGCCACCCTCGTCCACGCCAGCAACGTCCAGTACGGAGTCACCTAGTGCAG”, the binding signal is 9280 fluorescence intensity (a.u.).
“CTACCGGTTTTGTATGTAAATGTTGTTGTTTTGTGATTTCCGGAGTCACCTAGTGCAG”: the binding signal was 8660 fluorescence intensity (a.u.).
To “CTCCGCTTCCGTCACCGATGAGTTTGGCCCCATCAACGTTCGGAGTCACCTAGTGCAG” belongs 8630 fluorescence intensity (a.u.).
